Assay results published in the supplement of paper PMC4604168 (melanoma cell lines).
The list shows a part of the results. Repeats are few or missing, and single values can be far off.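 Cells were imaged in 1,536-well plates, and nuclei stained with an antibody against cleaved PARP were counted against all DNA-stained nuclei to give the apoptosis fraction. Screening doses were chosen to leave most cells alive, and resting and induced cleaved-PARP levels differ strongly between cell lines.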

How the values were obtained:
Assay in all cases: cleaved PARP positive nuclei fraction relative to DMSO control; melanoma cells; higher = more apoptosis
Settings in all cases: library dose: low library concentration; 72 h
COLO792 = tested on: COLO792
COLO800 = tested on: COLO800
COLO829 = tested on: COLO829
G361 = tested on: G361
IPC-298 = tested on: IPC-298
IST-MEL1 = tested on: IST-MEL1
LB2518-MEL = tested on: LB2518-MEL
LOXIMVI = tested on: LOXIMVI
MEL-HO = tested on: MEL-HO
MZ2-MEL = tested on: MZ2-MEL
MeWo = tested on: MeWo
RPMI7951 = tested on: RPMI7951
RVH-421 = tested on: RVH-421
SkMel28 = tested on: SkMel28
SkMel2 = tested on: SkMel2
SkMel30 = tested on: SkMel30
SkMel5 = tested on: SkMel5
UACC257 = tested on: UACC257
UACC62 = tested on: UACC62

Row | Structure (SMILES) | cleaved PARP positive nuclei fraction (COLO792) | cleaved PARP positive nuclei fraction (COLO800) | cleaved PARP positive nuclei fraction (COLO829) | cleaved PARP positive nuclei fraction (G361) | cleaved PARP positive nuclei fraction (IPC-298) | cleaved PARP positive nuclei fraction (IST-MEL1) | cleaved PARP positive nuclei fraction (LB2518-MEL) | cleaved PARP positive nuclei fraction (LOXIMVI) | cleaved PARP positive nuclei fraction (MEL-HO) | cleaved PARP positive nuclei fraction (MZ2-MEL) | cleaved PARP positive nuclei fraction (MeWo) | cleaved PARP positive nuclei fraction (RPMI7951) | cleaved PARP positive nuclei fraction (RVH-421) | cleaved PARP positive nuclei fraction (SkMel28) | cleaved PARP positive nuclei fraction (SkMel2) | cleaved PARP positive nuclei fraction (SkMel30) | cleaved PARP positive nuclei fraction (SkMel5) | cleaved PARP positive nuclei fraction (UACC257) | cleaved PARP positive nuclei fraction (UACC62)
1 | CO[C@@H]1[C@H](N(C)C(=O)c2ccccc2)C[C@H]2O[C@]1(C)n1c3ccccc3c3c4c(c5c6ccccc6n2c5c31)C(=O)NC4 [Midostaurin] + Cc1cc(N2CCOCC2)cc2[nH]c(-c3c(NC[C@@H](O)c4cccc(Cl)c4)cc[nH]c3=O)nc12 [BMS536924] (first compound 0.08 µM, partner dose 0.2 µM) | 86.3% | 169% | 112% | 154% | 50.6% | 244% | 116% | 57.1% | 29.3% | 143% | 164% | 74.6% | 73.3% | 66.6% | 132% | 64.6% | 65.6% | 133% | 71.2%
2 | C#Cc1cccc(Nc2ncnc3cc(OCCOC)c(OCCOC)cc23)c1 [erlotinib] + Cc1cc(N2CCOCC2)cc2[nH]c(-c3c(NC[C@@H](O)c4cccc(Cl)c4)cc[nH]c3=O)nc12 [BMS536924] (first compound 0.8 µM, partner dose 0.2 µM) | 194% | 59.6% | 19.9% | 97.6% | 105% | 99.4% | 211% | 196% | 83% | 184% | 116% | 98.3% | 77% | 130% | 108% | 269% | 260% | 125% | 60%
3 | CC(C)(C)c1cnc(CSc2cnc(NC(=O)C3CCNCC3)s2)o1 + CN(C)S(=O)(=O)c1ccc2c(c1)/C(=C/c1cc3c([nH]1)CCCC3)C(=O)N2 [SU6656] (first compound 0.01 µM, partner dose 0.4 µM) | 279% | 71.3% | 107% | 111% | 367% | 264% | 93% | 95.1% | 134% | 280% | 35.9% | 83.8% | 146% | 160% | 76.2% | 56.9% | 99.3% | 122% | 291%
4 | C[C@@H]1CCN(C(=O)CC#N)C[C@@H]1N(C)c1ncnc2[nH]ccc12 + O=C(Nc1cccc(Cl)c1)Nc1ncc(CCNc2ncnc3ccsc23)s1 [SNS314] (first compound 1 µM, partner dose 0.0008 µM) | 95.3% | 112% | 61.3% | 36.3% | 81.6% | 60.9% | 45.7% | 60.3% | 57.8% | 126% | 99.7% | 131% | 61.6% | 16.3% | 171% | 56.2% | 139% | 36.6% | 78.8%
5 | OCc1c[nH]c2ccccc12 [Indole-3-carbinol] + CN(C)S(=O)(=O)c1ccc2c(c1)/C(=C/c1cc3c([nH]1)CCCC3)C(=O)N2 [SU6656] (first compound 0.8 µM, partner dose 0.4 µM) | 33.7% | 61.7% | 51.2% | 52.9% | 175% | 106% | 126% | 55.9% | 448% | 49.8% | 105% | 185% | 50.5% | 77.1% | 47.1% | 67% | 78.1% | 163% | 193%
6 | C=CCNC1=C2C[C@@H](C)C[C@H](OC)[C@H](O)[C@@H](C)/C=C(\C)[C@H](OC(N)=O)[C@@H](OC)/C=C\C=C(/C)C(=O)NC(=CC1=O)C2=O [Tanespimycin] + NCC(=O)Nc1ccc(-n2nc(C(F)(F)F)cc2-c2ccc3c(ccc4ccccc43)c2)cc1 [OSU03012] (first compound 0.002 µM, partner dose 1 µM) | 198% | 109% | 103% | 83.3% | 156% | 158% | 96.2% | 120% | 95.6% | 102% | 181% | 115% | 46.4% | 144% | 264% | 123% | 392% | 106% | 74.9%
7 | Cn1cncc1[C@@](N)(c1ccc(Cl)cc1)c1ccc2c(c1)c(-c1cccc(Cl)c1)cc(=O)n2C [tipifarnib] + CN(C)S(=O)(=O)c1ccc2c(c1)/C(=C/c1cc3c([nH]1)CCCC3)C(=O)N2 [SU6656] (first compound 0.01 µM, partner dose 0.4 µM) | 68.1% | 99.3% | 204% | 116% | 101% | 136% | 128% | 53% | 47% | 127% | 71% | 148% | 75% | 101% | 107% | 134% | 101% | 76.9% | 205%
8 | O=C(Nc1cccc(Cl)c1)Nc1ncc(CCNc2ncnc3ccsc23)s1 + NCC(=O)Nc1ccc(-n2nc(C(F)(F)F)cc2-c2ccc3c(ccc4ccccc43)c2)cc1 [OSU03012] (first compound 0.0008 µM, partner dose 1 µM) | 54.7% | 106% | 110% | 153% | 88.4% | 36% | 115% | 78.7% | 66.1% | 139% | 160% | 168% | 164% | 233% | 189% | 94.7% | 62.9% | 133% | 71.1%
9 | C=CCNC1=C2C[C@@H](C)C[C@H](OC)[C@H](O)[C@@H](C)/C=C(\C)[C@H](OC(N)=O)[C@@H](OC)/C=C\C=C(/C)C(=O)NC(=CC1=O)C2=O [Tanespimycin] + CO[C@@H]1[C@H](N(C)C(=O)c2ccccc2)C[C@H]2O[C@]1(C)n1c3ccccc3c3c4c(c5c6ccccc6n2c5c31)C(=O)NC4 [Midostaurin] (first compound 0.002 µM, partner dose 0.08 µM) | 131% | 77.4% | 107% | 108% | 93.9% | 209% | 44.6% | 53.3% | 99.7% | 114% | 264% | 93.9% | 66.6% | 56.1% | 155% | 69.8% | 79.6% | 30.9% | 75.8%
10 | Nc1cccc2c1CN(C1CCC(=O)NC1=O)C2=O (centres undefined) [lenalidomide] + CN(C)S(=O)(=O)c1ccc2c(c1)/C(=C/c1cc3c([nH]1)CCCC3)C(=O)N2 [SU6656] (first compound 1 µM, partner dose 0.4 µM) | 99.4% | 97.5% | 136% | 125% | 189% | 98.1% | 99.8% | 67% | 196% | 156% | 123% | 106% | 121% | 143% | 92.8% | 92.6% | 84.6% | 143% | 159%
11 | Clc1ccc(Nc2nnc(Cc3ccncc3)c3ccccc23)cc1 [vatalanib] + CCCCCCCCCCCC1=C(O)C(=O)C=C(O)C1=O [Embelin] (first compound 2 µM, partner dose 1.2 µM) | 51.6% | 128% | 125% | 69.4% | 83.2% | 140% | 70.2% | 129% | – | 39.6% | 116% | 263% | 68.3% | 104% | 102% | 18.9% | 139% | 142% | 336%
12 | C=CCNC1=C2C[C@@H](C)C[C@H](OC)[C@H](O)[C@@H](C)/C=C(\C)[C@H](OC(N)=O)[C@@H](OC)/C=C\C=C(/C)C(=O)NC(=CC1=O)C2=O [Tanespimycin] + O=C(CCCCCCC(=O)Nc1ccccc1)NO [vorinostat] (first compound 0.002 µM, partner dose 0.08 µM) | 123% | 43% | 84.8% | 141% | 93.9% | 151% | 83.5% | 167% | 106% | 158% | 143% | 127% | 120% | 211% | 83.5% | 212% | 125% | 107% | 27.2%
13 | C=CCNC1=C2C[C@@H](C)C[C@H](OC)[C@H](O)[C@@H](C)/C=C(\C)[C@H](OC(N)=O)[C@@H](OC)/C=C\C=C(/C)C(=O)NC(=CC1=O)C2=O [Tanespimycin] + O=S(=O)(c1ccccc1)N(CC(F)(F)F)c1ccc(C(O)(C(F)(F)F)C(F)(F)F)cc1 [T0901317] (first compound 0.002 µM, partner dose 1.4 µM) | 68.3% | 41.7% | 119% | 90.9% | 146% | 28.1% | 84.9% | 231% | – | 120% | 96.5% | 22.9% | 95.2% | 70.2% | 87.3% | 74% | 87.5% | 72% | 70.8%
14 | C=CCNC1=C2C[C@@H](C)C[C@H](OC)[C@H](O)[C@@H](C)/C=C(\C)[C@H](OC(N)=O)[C@@H](OC)/C=C\C=C(/C)C(=O)NC(=CC1=O)C2=O [Tanespimycin] + COc1ccc(COc2ccc(Cc3cnc(N)nc3N)cc2OC)cc1 [GW2580] (first compound 0.002 µM, partner dose 1 µM) | 140% | 124% | 253% | 167% | 152% | 29.2% | 149% | 42.7% | – | 88.1% | 64.3% | 172% | 216% | 167% | 90.6% | 26% | 77.6% | 224% | 278%
15 | OCc1c[nH]c2ccccc12 [Indole-3-carbinol] + Cn1cc(/C=C2\C(=O)Nc3cccnc32)c2ccccc21 [GW441756] (first compound 0.8 µM, partner dose 0.4 µM) | 115% | 105% | 88.4% | 97.4% | 46% | 109% | 73.9% | 66.9% | – | 27.4% | 158% | 70.4% | 39.5% | 190% | 35.1% | 45.8% | 86.8% | 115% | 88.6%
16 | CC(=O)c1c(C)c2cnc(Nc3ccc(N4CCNCC4)cn3)nc2n(C2CCCC2)c1=O [palbociclib] + C[C@@H]1CCN(C(=O)CC#N)C[C@@H]1N(C)c1ncnc2[nH]ccc12 [CP690550] (first compound 0.04 µM, partner dose 1 µM) | 103% | 63% | 111% | 188% | 106% | 54.6% | 130% | 78.6% | 78.3% | 161% | 142% | 61.7% | 92.1% | 142% | 54.8% | 95.1% | 140% | 307% | 86.9%
17 | COc1cc(Nc2ncc(F)c(Nc3ccc4c(n3)NC(=O)C(C)(C)O4)n2)cc(OC)c1OC [Tamatinib] + CC(C)(C)c1cnc(CSc2cnc(NC(=O)C3CCNCC3)s2)o1 [SNS-032] (first compound 0.4 µM, partner dose 0.01 µM) | 159% | 91.4% | 92.6% | 101% | 99.7% | 202% | 120% | 142% | 68.2% | 148% | 72.6% | 72% | 181% | 265% | 136% | 78.9% | 138% | 80.2% | 230%

Reformatted with tabs: entries from further up.
Row	Structure (SMILES)	cleaved PARP positive nuclei fraction (COLO792)	cleaved PARP positive nuclei fraction (COLO800)	cleaved PARP positive nuclei fraction (COLO829)	cleaved PARP positive nuclei fraction (G361)	cleaved PARP positive nuclei fraction (IPC-298)	cleaved PARP positive nuclei fraction (IST-MEL1)	cleaved PARP positive nuclei fraction (LB2518-MEL)	cleaved PARP positive nuclei fraction (LOXIMVI)	cleaved PARP positive nuclei fraction (MEL-HO)	cleaved PARP positive nuclei fraction (MZ2-MEL)	cleaved PARP positive nuclei fraction (MeWo)	cleaved PARP positive nuclei fraction (RPMI7951)	cleaved PARP positive nuclei fraction (RVH-421)	cleaved PARP positive nuclei fraction (SkMel28)	cleaved PARP positive nuclei fraction (SkMel2)	cleaved PARP positive nuclei fraction (SkMel30)	cleaved PARP positive nuclei fraction (SkMel5)	cleaved PARP positive nuclei fraction (UACC257)	cleaved PARP positive nuclei fraction (UACC62)
1	CO[C@@H]1[C@H](N(C)C(=O)c2ccccc2)C[C@H]2O[C@]1(C)n1c3ccccc3c3c4c(c5c6ccccc6n2c5c31)C(=O)NC4 [Midostaurin] + Cc1cc(N2CCOCC2)cc2[nH]c(-c3c(NC[C@@H](O)c4cccc(Cl)c4)cc[nH]c3=O)nc12 [BMS536924] (first compound 0.08 µM, partner dose 0.2 µM)	86.3%	169%	112%	154%	50.6%	244%	116%	57.1%	29.3%	143%	164%	74.6%	73.3%	66.6%	132%	64.6%	65.6%	133%	71.2%
17	COc1cc(Nc2ncc(F)c(Nc3ccc4c(n3)NC(=O)C(C)(C)O4)n2)cc(OC)c1OC [Tamatinib] + CC(C)(C)c1cnc(CSc2cnc(NC(=O)C3CCNCC3)s2)o1 [SNS-032] (first compound 0.4 µM, partner dose 0.01 µM)	159%	91.4%	92.6%	101%	99.7%	202%	120%	142%	68.2%	148%	72.6%	72%	181%	265%	136%	78.9%	138%	80.2%	230%
